Measured values taken from publication PMC10141604, “Small-Molecule Inhibition of Androgen Receptor Dimerization as a Strategy against Prostate Cancer” (ACS Central Science, 2023).

Test system: LNCaP cells
Experiment: RNA-seq transcriptome sequencing of LNCaP cells
Format: cell-based
Conditions: 10 nM DHT, antagonists 10 μM with DHT, 48 h

Structure (SMILES) | down-regulated genes (RNA-seq) | up-regulated genes (RNA-seq)
C[C@]12CCC(=O)C[C@@H]1CC[C@@H]1[C@@H]2CC[C@]2(C)[C@@H](O)CC[C@@H]12 [DHT, 5α-dihydrotestosteron] | 222 | 268
CC(=O)Cc1nsc(NC(=O)c2cc(-c3cccc(C(F)(F)F)c3)oc2C)n1 [Compound M17-B15] | 32 | 6
CNC(=O)c1ccc(N2C(=S)N(c3ccc(C#N)c(C(F)(F)F)c3)C(=O)C2(C)C)cc1F [Enz, enzalutamide, reference compound] | 97 | 56
